Measured values reported in article PMC12370185.
The other results are listed elsewhere or left out. For part of these data: At the low end of the ranking the order means little.

Columns and labels:
Conditions in all cases: 10 mM Tris-Cl pH 7.5, 50 mM NaCl, 1 mM DTT, 0.25 mg/ml BSA, 2 mM MgCl2, 0.025% Nonidet P-40, 5% glycerol; 28 nM nucleosome library; 10 min on ice then 30 min …; high values mean tight binding; double strand, one strand shown
OCT4 + histone octamer [1] = test: EMSA with sequencing
SOX2 + histone octamer [2] = test: EMSA with sequencing
[3] = test system: c-MYC + MAX + histone octamer; test: EMSA with sequencing
KLF4 + histone octamer [4] = test: Pioneer-seq (competitive nucleosome EMSA with sequencing)
KLF4 + histone octamer [5] = test: EMSA with sequencing
OCT4 + histone octamer [6] = test: Pioneer-seq (competitive nucleosome EMSA with sequencing)
SOX2 + histone octamer [7] = test: as above
[8] = test system: c-MYC + MAX + histone octamer; test: as above

Sequence: GATGGACCCTATACGCGGCATGATTCTCGCCAGTGGTATTAACATATCCTCAGTGGTGAGTATTAACATGGAACTTACTCCAACAATACAGATGCTGAATAAATGTAGTCTAAGTGAAGGAAGAAGGAAAGGTGGGAGCTGCCATCACTCAGAATTGTCCAGCAGGGATTGTGCAAGCTTGTGAATAAAGACAGAGGTTATTGAACAGCGTGCCAGTCGGATAGTGTTCC
- binding signal (log2 relative supershift) (OCT4 + histone octamer [1]): 1.56
- binding signal (log2 relative supershift) (SOX2 + histone octamer [2]): 0.321
- binding signal (log2 relative supershift) [3]: 0.683
- binding signal (log2 relative supershift) (KLF4 + histone octamer [4]): -0.222

Sequence: GATGGACCCTATACGCGGCGGCCTGGACCCAACCCGAAACTCAACAAGCAGCAGCCTGGCCGTGGTGCCTCAAGCCAGCCACTAGAGGGTGCAGTTGAGCTGTCAGCCTGCCTGGAGGGGCGAGGTGGTGGGGGTGAGTGTGCAGGCGTGTGTGTGTGTGTGTGTGTGTGTGCGCGCGCGCGCGCGCCTGTGTGTGGGCGTGTTGTGTGCTGCCAGTCGGATAGTGTTCC
- binding signal (log2 relative supershift) (KLF4 + histone octamer [5]): 1.32
- binding signal (log2 relative supershift) [3]: 0.669

Sequence: GATGGACCCTATACGCGGCGCAAAGCTCCAGTACCCTCAGGCCACACCTACTGGAAAAATATATGTCAGCCCCAGAAAATTGTGGGCAAGATGAGGCAAGTCCTGAGCAACACAGGAAACTGCCCTCCTCCTTTTCTGGCCCCGCTTCCACTGTGATGCTAAAGATCGCATCAAGGCTGGTCATCCAATCAGCAGGATGTAAGAGGGTCATGCCAGTCGGATAGTGTTCC
- binding signal (log2 relative supershift) (KLF4 + histone octamer [5]): 2.17
- binding signal (log2 relative supershift) (OCT4 + histone octamer [6]): -0.611
- binding signal (log2 relative supershift) (SOX2 + histone octamer [7]): -0.504
- binding signal (log2 relative supershift) [8]: -0.00118

Sequence: GATGGACCCTATACGCGGCTCATGGAATCCTTCATTAGCTCCATTTCTTAGCAGAAAAGGTTGTGCAGCATATGCCATATCATACTGGATATGCCCCATCTCATGATGAGCTGTCAGGAAGTCGTCCATTGTCACCTTTGTGCACATAAGGATCCTGCATGAAAATGGACAAGATGAAAATGAATCTCACTGACTTTCATTTAACCATTATGCCAGTCGGATAGTGTTCC
- binding signal (log2 relative supershift) (SOX2 + histone octamer [2]): 1.08
- binding signal (log2 relative supershift) [3]: 0.114
- binding signal (log2 relative supershift) (KLF4 + histone octamer [4]): -0.496
- binding signal (log2 relative supershift) (OCT4 + histone octamer [6]): -0.0276

Sequence: GATGGACCCTATACGCGGCTCTACTTCTTGTTTCTTTCCTTGCTATTTAATACTTAAAGTGTGGTGCCCCACTTGTTTGCCAGGAGCAGTATCACATCAGACTCTGCTGTTAACAAGGTCCCCAGGTGATTCATATGCACATTAAAGTTCATTTTGCACCTCTTTTGGCATTGACTTTACTTTCAGTGGCCTATTTTATGTAATGTAAAATGCCAGTCGGATAGTGTTCC
- binding signal (log2 relative supershift) (OCT4 + histone octamer [1]): 0.622
- binding signal (log2 relative supershift) (SOX2 + histone octamer [2]): 0.237
- binding signal (log2 relative supershift) (KLF4 + histone octamer [4]): -0.726
- binding signal (log2 relative supershift) [8]: -0.159

Sequence: GATGGACCCTATACGCGGCAGAGAGCCCAAGACTAGAAATGCCCATATCTTCCCATGGAAAGTGTTCCTCTGATAGGCGGGAGACAGAGGACCAAATTGCAAGTTACAACCTGCAGCCTGGGAGTTTCAGGGGCTTCAACACCAAATGAAATTGGAGAACTATCAACAGGATTCAGGGTTCAGCACAGGCTCCAGCAAGACAGAGAGAAATGCCAGTCGGATAGTGTTCC
- binding signal (log2 relative supershift) (KLF4 + histone octamer [5]): 1.83
- binding signal (log2 relative supershift) (OCT4 + histone octamer [6]): -0.193
- binding signal (log2 relative supershift) (SOX2 + histone octamer [7]): -0.153
- binding signal (log2 relative supershift) [8]: -0.406

Sequence: GATGGACCCTATACGCGGCTTAATTCCTCCACTCTTGCAAGTGTACTTAATAGCTCACACAAAGCAAGAAGCATAACCGCAAGAACACAGAGAAGCCTGCCCTGCCAGGTTTATTGTGTGCCTGGCTGCGTGATTATTGTTTTGCATATAACCTCACAGAGGAAATCCTGTGTCAGGCACTTCCAGAGCCTCATGTAGTTTTACTGGATGTGCCAGTCGGATAGTGTTCC
- binding signal (log2 relative supershift) [3]: 0.103
- binding signal (log2 relative supershift) (KLF4 + histone octamer [4]): -0.583
- binding signal (log2 relative supershift) (OCT4 + histone octamer [6]): -0.329
- binding signal (log2 relative supershift) (SOX2 + histone octamer [7]): -0.445

Sequence: GATGGACCCTATACGCGGCATTATGTACACAGTCTCATGGACAAAGGCATTTGTCAAGTCTCTATGATATTTCTAGAAATACCTTACAGGGCATTATGACTATACAAAGTCAGGGTAGGGCAGCAGAATGCCTGTCTTCAAGACTCTCCATCCCAATGCTCAGGACTTGTTATGCTACTCAGACCAGCATCTTTTGCACAAAGTATTTGTTGCCAGTCGGATAGTGTTCC
- binding signal (log2 relative supershift) (SOX2 + histone octamer [2]): 1.74
- binding signal (log2 relative supershift) [3]: 0.263
- binding signal (log2 relative supershift) (KLF4 + histone octamer [4]): -0.247
- binding signal (log2 relative supershift) (OCT4 + histone octamer [6]): -0.161

Sequence: GATGGACCCTATACGCGGCTGTGTTTTAAAAAAGAAGTATTTCTTGCAAACACTTATGACTTGTCTATGTCTTCTACAAGTCTGGACATGTCTTGGAACATTATCTGTGTTCTGTGGGTTACAAGGCTTGTCGAGGTCAAAGTACTCAGACATGAGACAGGCACCTTGTATACTCCAGAGAGCTAGAAATACTTGGAGATTAAGTCTAGTTGCCAGTCGGATAGTGTTCC
- binding signal (log2 relative supershift) (SOX2 + histone octamer [2]): 0.359
- binding signal (log2 relative supershift) (KLF4 + histone octamer [4]): -0.264
- binding signal (log2 relative supershift) (OCT4 + histone octamer [6]): -0.41
- binding signal (log2 relative supershift) [8]: -0.199

Sequence: GATGGACCCTATACGCGGCTTGAAAGCCAAACTCTTAGATGTTGTGCATGTCGAAACTGGAACAAAGATTATAATGCAAGTTCAATTTTCCTCAAATATGGATCTCAACATTAATTGTGGTATGCAGCTCACCCACAGCCTTGGGTGTGGTCTATGAATGCAGCTGCTACTCTGTTCTACAATTATTGTATTTTATTGCCATTATGACTGTGCCAGTCGGATAGTGTTCC
- binding signal (log2 relative supershift) (SOX2 + histone octamer [2]): 1.44
- binding signal (log2 relative supershift) [3]: 0.392
- binding signal (log2 relative supershift) (KLF4 + histone octamer [4]): -0.165
- binding signal (log2 relative supershift) (OCT4 + histone octamer [6]): -0.389

Sequence: GATGGACCCTATACGCGGCCTGGGTTCTGAGAGCCTTCAGGACATGTGTCACCGCAGACGACGTTTTAACTTGTAGTGCTAGCTGCTTGTTTCAACTTGCTCCACAAAGGAAAAATAACTATTATGGTCTGGGTGGCACTGGGAAAACATCTTCCATCTTCTAGACCTAGAAGTGAGACTTTTAGCTGAAGAAATGGACTCCAAGTCCAGTGCCAGTCGGATAGTGTTCC
- binding signal (log2 relative supershift) (OCT4 + histone octamer [1]): 0.0323
- binding signal (log2 relative supershift) (SOX2 + histone octamer [2]): 0.369
- binding signal (log2 relative supershift) [3]: 0.192
- binding signal (log2 relative supershift) (KLF4 + histone octamer [4]): -0.637
